Consider three molecules from paper PMC8801414.

Protein sequences, listed by entry. Tags and fused reporters are not part of them.
UniProt P11103: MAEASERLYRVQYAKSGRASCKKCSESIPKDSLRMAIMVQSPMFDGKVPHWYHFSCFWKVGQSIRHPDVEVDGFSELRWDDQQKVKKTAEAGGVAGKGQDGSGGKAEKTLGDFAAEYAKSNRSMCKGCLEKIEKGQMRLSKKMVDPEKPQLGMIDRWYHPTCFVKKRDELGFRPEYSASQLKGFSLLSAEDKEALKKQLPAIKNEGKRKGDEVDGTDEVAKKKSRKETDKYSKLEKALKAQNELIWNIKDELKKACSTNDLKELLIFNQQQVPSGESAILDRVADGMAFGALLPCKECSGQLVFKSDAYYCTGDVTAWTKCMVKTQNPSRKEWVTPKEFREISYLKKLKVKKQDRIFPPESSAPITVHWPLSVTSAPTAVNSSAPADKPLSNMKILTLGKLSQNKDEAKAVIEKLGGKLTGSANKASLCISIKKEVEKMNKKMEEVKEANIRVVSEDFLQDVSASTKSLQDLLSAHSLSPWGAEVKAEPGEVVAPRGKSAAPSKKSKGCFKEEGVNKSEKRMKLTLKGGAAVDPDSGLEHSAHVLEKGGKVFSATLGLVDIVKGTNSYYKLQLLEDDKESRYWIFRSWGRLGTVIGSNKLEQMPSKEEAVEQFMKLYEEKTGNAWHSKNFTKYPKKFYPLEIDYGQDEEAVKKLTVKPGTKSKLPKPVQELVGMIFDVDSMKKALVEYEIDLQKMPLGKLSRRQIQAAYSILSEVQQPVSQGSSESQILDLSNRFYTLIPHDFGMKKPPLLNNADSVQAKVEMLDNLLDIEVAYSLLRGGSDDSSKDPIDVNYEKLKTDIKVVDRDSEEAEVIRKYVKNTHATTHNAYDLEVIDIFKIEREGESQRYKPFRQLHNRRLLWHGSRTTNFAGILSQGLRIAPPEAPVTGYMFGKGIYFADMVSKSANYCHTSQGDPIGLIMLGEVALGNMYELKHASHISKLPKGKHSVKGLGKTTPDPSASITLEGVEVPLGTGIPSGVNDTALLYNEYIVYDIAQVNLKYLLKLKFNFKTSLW
UniProt Q96P20: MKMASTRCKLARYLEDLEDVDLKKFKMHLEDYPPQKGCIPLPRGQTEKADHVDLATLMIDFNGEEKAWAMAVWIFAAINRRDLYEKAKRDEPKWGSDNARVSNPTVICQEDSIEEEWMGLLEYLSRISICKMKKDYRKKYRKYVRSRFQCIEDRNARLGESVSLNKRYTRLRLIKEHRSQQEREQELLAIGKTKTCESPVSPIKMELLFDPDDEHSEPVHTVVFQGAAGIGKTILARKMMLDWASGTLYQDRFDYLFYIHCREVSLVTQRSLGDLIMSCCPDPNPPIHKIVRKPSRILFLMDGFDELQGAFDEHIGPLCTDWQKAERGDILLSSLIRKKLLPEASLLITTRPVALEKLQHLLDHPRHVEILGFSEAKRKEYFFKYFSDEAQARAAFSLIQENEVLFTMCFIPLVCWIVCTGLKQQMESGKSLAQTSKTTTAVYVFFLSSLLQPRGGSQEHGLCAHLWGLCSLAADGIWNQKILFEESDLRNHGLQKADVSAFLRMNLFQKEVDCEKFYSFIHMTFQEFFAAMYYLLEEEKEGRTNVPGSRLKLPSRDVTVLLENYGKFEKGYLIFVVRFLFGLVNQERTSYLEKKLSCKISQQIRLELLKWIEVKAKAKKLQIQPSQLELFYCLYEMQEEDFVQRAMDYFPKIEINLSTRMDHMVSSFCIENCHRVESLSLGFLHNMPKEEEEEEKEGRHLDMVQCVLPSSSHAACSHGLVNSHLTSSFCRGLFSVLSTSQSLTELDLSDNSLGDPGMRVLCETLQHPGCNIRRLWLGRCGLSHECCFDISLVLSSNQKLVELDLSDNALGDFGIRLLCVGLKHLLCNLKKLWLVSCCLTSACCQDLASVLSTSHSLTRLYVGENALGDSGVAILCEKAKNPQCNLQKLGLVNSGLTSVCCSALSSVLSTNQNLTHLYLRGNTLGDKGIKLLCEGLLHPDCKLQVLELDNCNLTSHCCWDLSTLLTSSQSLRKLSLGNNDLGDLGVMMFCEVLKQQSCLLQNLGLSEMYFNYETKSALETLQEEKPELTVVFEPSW
UniProt Q8R4B8: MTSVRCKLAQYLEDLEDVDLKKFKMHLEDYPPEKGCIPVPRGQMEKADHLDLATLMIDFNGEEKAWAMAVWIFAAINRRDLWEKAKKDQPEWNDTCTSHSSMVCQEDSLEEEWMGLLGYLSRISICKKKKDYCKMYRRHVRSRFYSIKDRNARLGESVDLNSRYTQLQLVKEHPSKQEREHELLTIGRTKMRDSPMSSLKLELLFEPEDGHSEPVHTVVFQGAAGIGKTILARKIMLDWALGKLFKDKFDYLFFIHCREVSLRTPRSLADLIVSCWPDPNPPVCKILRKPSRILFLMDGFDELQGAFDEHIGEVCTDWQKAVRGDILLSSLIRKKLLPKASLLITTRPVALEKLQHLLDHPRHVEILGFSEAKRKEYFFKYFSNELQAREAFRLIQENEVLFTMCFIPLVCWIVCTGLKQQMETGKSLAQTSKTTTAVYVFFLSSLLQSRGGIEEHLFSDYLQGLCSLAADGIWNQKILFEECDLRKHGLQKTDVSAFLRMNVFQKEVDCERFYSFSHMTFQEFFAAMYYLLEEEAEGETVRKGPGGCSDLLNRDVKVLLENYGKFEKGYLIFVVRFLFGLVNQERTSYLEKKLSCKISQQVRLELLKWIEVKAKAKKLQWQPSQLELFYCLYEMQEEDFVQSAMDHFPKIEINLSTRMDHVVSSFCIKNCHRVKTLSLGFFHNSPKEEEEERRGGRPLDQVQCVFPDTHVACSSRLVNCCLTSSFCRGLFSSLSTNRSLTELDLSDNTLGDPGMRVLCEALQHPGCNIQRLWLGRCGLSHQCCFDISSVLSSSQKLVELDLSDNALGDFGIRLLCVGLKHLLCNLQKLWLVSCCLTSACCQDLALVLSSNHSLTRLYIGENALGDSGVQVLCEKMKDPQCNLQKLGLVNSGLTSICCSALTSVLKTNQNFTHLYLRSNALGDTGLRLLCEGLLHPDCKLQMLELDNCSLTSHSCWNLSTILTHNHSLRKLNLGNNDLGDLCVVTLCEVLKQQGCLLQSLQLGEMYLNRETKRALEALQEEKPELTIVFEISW
UniProt P09874: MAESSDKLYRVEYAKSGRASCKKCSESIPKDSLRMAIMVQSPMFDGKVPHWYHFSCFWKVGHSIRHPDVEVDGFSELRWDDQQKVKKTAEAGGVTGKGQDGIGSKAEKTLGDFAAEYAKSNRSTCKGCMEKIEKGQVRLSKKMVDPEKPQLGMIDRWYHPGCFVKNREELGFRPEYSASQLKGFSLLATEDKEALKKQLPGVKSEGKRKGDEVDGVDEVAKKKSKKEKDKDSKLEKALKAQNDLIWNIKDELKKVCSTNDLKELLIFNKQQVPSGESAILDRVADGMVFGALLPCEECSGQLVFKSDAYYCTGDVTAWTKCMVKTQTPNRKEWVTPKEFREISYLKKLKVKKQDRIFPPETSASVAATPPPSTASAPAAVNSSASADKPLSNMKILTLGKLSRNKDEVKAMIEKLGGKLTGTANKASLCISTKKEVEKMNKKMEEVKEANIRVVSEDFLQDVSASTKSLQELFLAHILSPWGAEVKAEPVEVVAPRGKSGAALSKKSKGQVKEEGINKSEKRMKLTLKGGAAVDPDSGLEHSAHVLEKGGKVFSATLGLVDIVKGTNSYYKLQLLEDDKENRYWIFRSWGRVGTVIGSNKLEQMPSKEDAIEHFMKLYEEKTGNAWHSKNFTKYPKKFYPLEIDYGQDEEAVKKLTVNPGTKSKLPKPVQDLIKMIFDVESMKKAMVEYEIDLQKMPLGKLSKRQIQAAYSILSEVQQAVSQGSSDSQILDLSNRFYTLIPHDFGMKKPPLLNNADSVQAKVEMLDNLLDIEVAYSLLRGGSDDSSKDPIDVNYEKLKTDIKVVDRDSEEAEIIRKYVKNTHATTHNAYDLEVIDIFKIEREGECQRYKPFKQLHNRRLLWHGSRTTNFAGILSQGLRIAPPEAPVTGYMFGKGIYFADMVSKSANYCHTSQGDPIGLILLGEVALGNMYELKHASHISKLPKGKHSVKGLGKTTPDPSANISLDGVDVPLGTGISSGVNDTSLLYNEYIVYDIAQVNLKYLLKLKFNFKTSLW

Where two headings read alike, the source gives them in different places. These are yes or no findings as the source states them, for the method shown. Binding seen in cells or lysates may run through a third protein. Some binding calls cover weakened binding; strength is not graded here. For some assays here: Tags and fused reporters may be left off the sequences shown.

For assay [1], the target named is T1, pro-caspase-1 (mouse (endogenous in BMDM)) (UniProt P29452).
T1 sequence: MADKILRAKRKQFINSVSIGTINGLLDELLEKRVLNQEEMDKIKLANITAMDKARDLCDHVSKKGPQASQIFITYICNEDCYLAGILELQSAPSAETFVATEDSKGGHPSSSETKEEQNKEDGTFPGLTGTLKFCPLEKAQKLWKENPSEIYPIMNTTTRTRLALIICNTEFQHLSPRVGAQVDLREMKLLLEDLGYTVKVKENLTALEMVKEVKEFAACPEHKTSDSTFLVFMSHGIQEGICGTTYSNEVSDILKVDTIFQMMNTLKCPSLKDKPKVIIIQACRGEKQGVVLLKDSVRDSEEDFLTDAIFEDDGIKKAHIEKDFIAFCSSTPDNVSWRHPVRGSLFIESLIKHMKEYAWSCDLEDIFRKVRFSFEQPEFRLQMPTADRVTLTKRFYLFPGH
Description: co-IP; endogenous proteins in lysates of WT or Parp-1-/- BMDM primed with LPS (1 ug/ml, 6 h) and stimulated with ATP (5 mM), some pretreated with DPQ (25 uM) or NAC (1 mM); RIPA buffer 150 mM NaCl, IP with caspase-1, PARP-1 or TXNIP antibody and protein A-agarose, washes with 300 and 150 mM NaCl; Western blot.

The target of assay [2] is Poly(ADP-ribose) polymerase-1 (PARP-1) (mouse (endogenous in BMDM)) (UniProt P11103). Described as above.
In assay [3] the target is T2, GFP-tagged TXNIP full length (F) (UniProt Q9H3M7).
T2 sequence: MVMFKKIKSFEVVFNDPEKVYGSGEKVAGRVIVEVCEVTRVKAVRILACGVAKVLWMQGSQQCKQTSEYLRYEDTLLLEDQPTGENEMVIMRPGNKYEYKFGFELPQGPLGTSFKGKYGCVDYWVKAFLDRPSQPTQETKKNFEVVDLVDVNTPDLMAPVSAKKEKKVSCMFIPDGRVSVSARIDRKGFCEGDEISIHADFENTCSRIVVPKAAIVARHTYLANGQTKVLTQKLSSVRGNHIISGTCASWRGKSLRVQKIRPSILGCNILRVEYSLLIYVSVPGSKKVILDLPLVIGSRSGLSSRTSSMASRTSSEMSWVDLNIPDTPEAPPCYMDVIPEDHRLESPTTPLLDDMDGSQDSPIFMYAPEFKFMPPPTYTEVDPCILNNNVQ
Nature of the assay: co-IP; HEK293T cells co-transfected with tagged constructs, lysed 24 h later; IP with anti-Myc (NLRP3 constructs) or anti-GFP (TXNIP constructs) antibody, Western blot for HA and the bait's tag.

The target of assay [4] is Myc-tagged NLRP3 full length (F) (UniProt Q96P20). The assay is described as above.
Assay [5] deals with Poly(ADP-ribose) polymerase-1 (PARP-1) (mouse (endogenous in BMDM)) (UniProt P11103). Description: co-IP; endogenous proteins in lysates of WT or Parp-1-/- BMDM primed with LPS (1 ug/ml, 6 h) and stimulated with ATP (5 mM), some pretreated with DPQ (25 uM) or NAC (1 mM); RIPA buffer 150 mM NaCl, IP with caspase-1, PARP-1 or TXNIP antibody and protein A-agarose, washes with 300 and 150 mM NaCl; Western blot. This is another data set of the same source.

Regarding “NLRP3 (NACHT domain-, leucine-rich repeat-, and pyrin domain-containing protein 3) (from UniProt Q8R4B8 1-1033)”, the binding entry in assay [1] and in assay [2] was “binds” in each case.

For “HA-tagged PARP-1 full length (F) (from UniProt P09874 1-1014)”, the binding result in assay [3] and in assay [4] was “binds” throughout.

B1: thioredoxin-interacting protein (TXNIP) (protein, UniProt Q8BG60 1-397)
chain: MVMFKKIKSFEVVFNDPEKVYGSGEKVAGRVIVEVCEVTRVKAVRILACGVAKVLWMQGSQQCKQTLDYLRYEDTLLLEEQPTAGENEMVIMRPGNKYEYKFGFELPQGPLGTSFKGKYGCVDYWVKAFLDRPSQPTQEAKKNFEVMDLVDVNTPDLMAPVSAKKEKKVSCMFIPDGRVSVSARIDRKGFCEGDDISIHADFENTCSRIVVPKAAIVARHTYLANGQTKVFTQKLSSVRGNHIISGTCASWRGKSLRVQKIRPSILGCNILKVEYSLLIYVSVPGSKKVILDLPLVIGSRSGLSSRTSSMASRTSSEMSWIDLNIPDTPEAPPCYMDIIPEDHRLESPTTPLLDDVDDSQDSPIFMYAPEFQFMPPPTYTEVDPCVLNNNNNNNNVQ
Turning to B1, the binding result in assay [5] is “binds”.
